Assay results from paper PMC4631838, “Molecular architecture of the yeast Mediator complex” (eLife, 2015).
These are yes or no findings as the source states them, for the method shown. In cells and extracts the contact can be indirect. A yes stands for co-enrichment or nearness to the bait. Other partners may have been found.

Chains of the proteins cited; added tags and fusions are not shown.
UniProt P32569: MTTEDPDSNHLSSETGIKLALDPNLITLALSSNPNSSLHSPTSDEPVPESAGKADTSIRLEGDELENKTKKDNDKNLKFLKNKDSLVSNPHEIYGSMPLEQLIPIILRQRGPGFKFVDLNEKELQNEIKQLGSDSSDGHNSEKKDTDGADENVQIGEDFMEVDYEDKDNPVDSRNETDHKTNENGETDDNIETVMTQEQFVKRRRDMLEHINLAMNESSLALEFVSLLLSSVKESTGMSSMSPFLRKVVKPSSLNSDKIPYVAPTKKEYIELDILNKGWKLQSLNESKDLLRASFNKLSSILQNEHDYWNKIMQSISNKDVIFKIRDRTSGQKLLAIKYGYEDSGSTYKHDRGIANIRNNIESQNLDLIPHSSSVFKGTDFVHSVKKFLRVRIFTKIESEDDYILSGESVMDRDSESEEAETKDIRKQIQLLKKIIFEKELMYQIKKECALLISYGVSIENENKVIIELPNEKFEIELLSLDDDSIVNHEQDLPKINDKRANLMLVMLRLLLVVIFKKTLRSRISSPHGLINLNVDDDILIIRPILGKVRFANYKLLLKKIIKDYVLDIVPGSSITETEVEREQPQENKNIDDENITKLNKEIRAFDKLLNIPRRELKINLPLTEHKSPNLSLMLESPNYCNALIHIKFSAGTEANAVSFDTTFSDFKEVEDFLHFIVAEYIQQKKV
UniProt P38633: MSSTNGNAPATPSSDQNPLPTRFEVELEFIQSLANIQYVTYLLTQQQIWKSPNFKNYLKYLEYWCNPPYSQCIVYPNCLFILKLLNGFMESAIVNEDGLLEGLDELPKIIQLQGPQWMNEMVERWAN

Molecular target: Med17 (Srb4), Mediator Head module subunit (S. cerevisiae) (UniProt P32569)
Experiment: affinity purification with mass spectrometry; native holoenzyme from S. cerevisiae whole-cell extract; capture on an IgG column by TAP on Med17 and protein G on Rpb1, wash in A500 buffer, stepwise TEV and 3C cleavage, ion exchange (HiTrap FFQ), Superose 6; subunits shown by SDS PAGE and mass spectrometry

Molecule | binding
Med31 (Soh1), Mediator Middle module subunit (from UniProt P38633 1-127) | binds
Med6, Mediator Head module subunit (protein, UniProt P38782 1-295) MNVTPLDELQWKSPEWIQVFGLRTENVLDYFAESPFFDKTSNNQVIKMQRQFSQLNDPNAAVNMTQNIMTLPDGKNGNLEEEFAYVDPARRQILFKYPMYMQLEEELMKLDGTEYVLSSVREPDFWVIRKQRRTNNSGVGSAKGPEIIPLQDYYIIGANIYQSPTIFKIVQSRLMSTSYHLNSTLESLYDLIEFQPSQGVHYKVPTDTSTTATAATNGNNAGGGSNKSSVRPTGGANMATVPSTTNVNMTVNTMGTGGQTIDNGTGRTGNGNMGITTEMLDKLMVTSIRSTPNYI | binds
